Patent US4590061A, “Antimicrobial plaque disclosing agent” (priority 1985, dated 1986)

Test: Visual plaque disclosure scoring in healthy volunteers (Table I)
Settings: human, in vivo
Protocol: Sanguinarine chloride was compared to two standard disclosing dyes, erythrosine and sodium fluorescein. At weekly interval healthy volunteers underwent a 12-24 hour, no oral hygiene period. Subjects then used one of the following: erythrosine, sodium flourescein, or sanguinarine chloride. Subjects rinsed two times with 15 ml. of the rinse, while the erythrosine and sodium fluorescein were used according to customary practice. Color was evaluated under ambient light after erythrosine, under ambient light for sodium fluorescein, and under longwave UV fluorescent light for sanguinarine. The color was scored for location, amount, and area.
All of the disclosing agents colored soft dental deposits at gingival margins and at the dorsal surface of the tongue. […] Mean values of plaque were measured for all disclosants.
This was the oral rinse used for the tests described in Tables I, II, and III.

SMILES | staining of gingivae and other soft tissues
O=C1OC2(c3ccccc31)c1cc(I)c(O)c(I)c1Oc1c2cc(I)c(O)c1I [Erythrosine] | stained the ginginvae and other soft tissues
C[n+]1cc2c3c(ccc2c2ccc4cc5c(cc4c21)OCO5)OCO3 [Sanguinarine] | did not
O=C1OC2(c3ccc(O)cc3Oc3cc(O)ccc32)c2ccccc21 [Sodium Fluorescein] | did not
